Inconclusive results, whose numbers are uncertain, are shown with a selection of clear calls. For part of these data: Where the call is inconclusive, the potency comes from a doubtful curve fit. Activity calls are given as the source filed them. The call rests on the fitted dose curve; in most records, active means well fitted cell-killing curve with a large enough effect; inconclusive means small, poorly fitted or top-dose-only effect, or effect the other way; inactive means no such curve, though single readings can be large or run the other way.
Key:
[1] = Quantitative High-Throughput drug screen in 47 multiple myeloma cell lines against the NCATS MIPE library collection: MM1R_ATCC cell viability assay (AID 1918981); further: nearly all actives have a fitted effect of over 35% in size
Outline: (§1)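 Cells were exposed to library compounds for 48 hours, after which ATP was measured by CellTiter-Glo. Signal was taken as median relative luminescence units.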

[2] = Quantitative High-Throughput drug screen in 47 multiple myeloma cell lines against the NCATS MIPE library collection: KMS28PE_JCRB cell viability assay (AID 1918983); further: nearly all actives have a fitted effect of over 35% in size
Outline: as §1

[3] = Quantitative High-Throughput drug screen in 47 multiple myeloma cell lines against the NCATS MIPE library collection: L363_DSMZ cell viability assay (AID 1918984); details: L363 myeloma viability, CellTiter-Glo ATP luminescence, 48 h; viability (% of control): at 45.8 µM (top of the series); further: nearly all actives have a fitted effect of over 40% in size
Outline: as §1

[4] = Quantitative High-Throughput drug screen in 47 multiple myeloma cell lines against the NCATS MIPE library collection: OCIMY5_PLB cell viability assay (AID 1918988); details: OCI-MY5 myeloma viability, ATP luminescence, 48 h; viability, % of control: at 45.8 µM (top of the series); further: nearly all actives have a fitted effect of over 65% in size;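 on viability, % of control: 100% = DMSO-treated wells and 0% = wells with media alone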
Outline: as §1

[5] = Quantitative High-Throughput drug screen in 47 multiple myeloma cell lines against the NCATS MIPE library collection: SKMM1_PLB cell viability assay (AID 1919863); details: SKMM1 myeloma viability, CellTiter-Glo ATP, 48 h; viability: hits give low values; further: nearly all actives have a fitted effect of over 35% in size
Outline: as §1

[6] = Quantitative High-Throughput drug screen in 47 multiple myeloma cell lines against the NCATS MIPE library collection: U266_ATCC cell viability assay (AID 1919864); further: nearly all actives have a fitted effect of over 35% in size
Outline: as §1

[7] = Quantitative High-Throughput drug screen in 47 multiple myeloma cell lines against the NCATS MIPE library collection: KMS34_JCRB cell viability assay (AID 1918985); details: KMS34 myeloma viability, CellTiter-Glo ATP luminescence, 48 h; viability, percent of control: at 45.8 µM (top of the series); further: nearly all actives have a fitted effect of over 40% in size;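 on viability, percent of control: 100% = DMSO-only wells and 0% = media-only wells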
Outline: as §1

[8] = Quantitative High-Throughput drug screen in 47 multiple myeloma cell lines against the NCATS MIPE library collection: OCIMY7_PLB cell viability assay (AID 1918987); details: OCI-MY7 myeloma viability, CellTiter-Glo ATP, 48 h; viability (% of DMSO): at 45.8 µM (top of the series); further: nearly all actives have a fitted effect of over 65% in size
Outline: as §1

[9] = Quantitative High-Throughput drug screen in 47 multiple myeloma cell lines against the NCATS MIPE library collection: LP1_DSMZ cell viability assay (AID 1918982); details: LP1 myeloma viability, CellTiter-Glo ATP luminescence, 48 h; viability (% of control): at 45.8 µM (top of the series); further: nearly all actives have a fitted effect of over 35% in size
Outline: as §1

[10] = Quantitative High-Throughput drug screen in 47 multiple myeloma cell lines against the NCATS MIPE library collection: OPM1_PLB cell viability assay (AID 1918989); details: CellTiter-Glo, 48 h; viability (% of control): at 45.8 µM (top of the series); further: nearly all actives have a fitted effect of over 40% in size
Outline: as §1
Potency means the concentration at half of the fitted maximal effect.

Structure (SMILES)	Potency [1]	Potency [2]	Potency [3]	Potency [4]	Potency [5]	Potency [6]	Potency [7]	Potency [8]	Potency [9]	viability, % of control [4]	Potency [10]	viability [5]
C[C@H](NC(=O)[C@@H](O)c1cc(F)cc(F)c1)C(=O)N[C@@H]1C(=O)N(C)c2ccccc2-c2ccccc21	inconclusive: 0.148 µM [cytotoxic, full curve, poor fit]	inactive	inconclusive: 0.0332 µM [cytotoxic, full curve, poor fit]	inconclusive: 1.87 µM [cytotoxic, partial curve, poor fit]	inconclusive: 8.33 µM [cytotoxic, full curve, poor fit]	inactive	–	–	–	–	–	–
COc1cc(OC)c(C(=O)CCCN2CCCC2)c(OC)c1	inactive	inconclusive: 3.32 µM [cytotoxic, partial curve, poor fit]	inconclusive: 1.48 µM [cytotoxic, full curve, poor fit]	inactive	inconclusive: 13.2 µM [cytotoxic, partial curve, poor fit]	inactive	inactive	–	–	–	–	–
O=C(Nc1ccccc1-c1cn2c(CN3CCNCC3)csc2n1)c1cnc2ccccc2n1	active: 20.9 µM	–	inconclusive: 0.166 µM [cytotoxic, full curve, poor fit]	–	–	–	inconclusive: 37.2 µM [cytotoxic, single point]	active: 9.35 µM	–	–	–	–
Cc1cc2cc3c(C)cc(=O)oc3c(C)c2o1	–	inconclusive: 37.2 µM [cytotoxic, single point]	–	–	–	–	–	–	inactive	–	–	–
CCC(C)SSc1ncc[nH]1 (centres undefined)	–	active: 11.8 µM	active: 2.96 µM	–	–	–	–	–	active: 8.33 µM	–	–	–
C[C@H](NC(=O)c1sccc1OCc1ccc(Cl)cc1)c1ccccc1	inconclusive: 18.7 µM [cytotoxic, partial curve]	–	inconclusive: 0.0148 µM [cytotoxic, full curve, poor fit]	–	–	inconclusive: 18.7 µM [cytotoxic, partial curve, poor fit]	inconclusive: 16.6 µM [cytotoxic, partial curve]	–	–	–	–	–
Cc1ccc(C(=O)Nc2ccc(S(=O)(=O)O)c3cc(S(=O)(=O)O)cc(S(=O)(=O)O)c23)cc1NC(=O)c1cccc(NC(=O)Nc2cccc(C(=O)Nc3cc(C(=O)Nc4ccc(S(=O)(=O)O)c5cc(S(=O)(=O)O)cc(S(=O)(=O)O)c45)ccc3C)c2)c1	inactive	inconclusive: 0.0469 µM [cytotoxic, full curve, poor fit]	inactive	–	inconclusive: 0.0026 µM [cytotoxic, full curve, poor fit]	inactive	inconclusive: 0.0037 µM [cytotoxic, full curve, poor fit]	–	–	inconclusive: 156% [cytotoxic]	active: 0.833 µM	–
Cc1ccc(-n2nc(C(C)(C)C)cc2NC(=O)Nc2ccc(OCCN3CCOCC3)c3ccccc23)cc1	inconclusive: 29.6 µM [cytotoxic, single point]	inconclusive: 26.4 µM [cytotoxic, single point]	inconclusive: 20.9 µM [cytotoxic, partial curve, poor fit]	–	inconclusive: 23.5 µM [cytotoxic, partial curve, poor fit]	–	inconclusive: 13.2 µM [cytotoxic, partial curve, poor fit]	active: 2.96 µM	–	–	active: 26.4 µM	–
O=C1NC(=O)C(c2ccccc2[N+](=O)[O-])=C1Nc1ccc(O)c(Cl)c1	inconclusive: 33.2 µM [cytotoxic, single point]	inconclusive: 8.33 µM [rising, full curve]	inactive	inconclusive: 0.0743 µM [cytotoxic, full curve, poor fit]	–	inactive	inconclusive: 14.8 µM [cytotoxic, partial curve, poor fit]	inconclusive: 14.8 µM [cytotoxic, partial curve, poor fit]	–	–	–	inactive: 110%
COc1cc2nc(N3CCCN(C)CC3)nc(NC3CCN(Cc4ccccc4)CC3)c2cc1OC	active: 4.18 µM	–	active: 1.66 µM	–	active: 7.43 µM	–	active: 8.33 µM	active: 6.62 µM	–	–	–	–
N#Cc1ccc(NC(=O)Nc2ccccc2Br)c2n[nH]nc12	inactive	–	active: 13.2 µM	inconclusive: 0.0209 µM [cytotoxic, full curve, poor fit]	–	inconclusive: 37.2 µM [cytotoxic, single point]	inactive	inconclusive: 33.2 µM [cytotoxic, single point]	–	–	inconclusive: 23.5 µM [cytotoxic, partial curve, poor fit]	inactive: 115%
Cc1ccccc1C(C(=O)NC1CCCC1)N(C(=O)Cn1cnc2ccccc21)c1cccc(F)c1 (centres undefined)	inactive	–	inconclusive: 10.5 µM [cytotoxic, single point]	inconclusive: 16.6 µM [cytotoxic, partial curve, poor fit]	–	–	inconclusive: 4.69 µM [cytotoxic, partial curve, poor fit]	–	–	–	inconclusive: 23.5 µM [cytotoxic, single point]	–
CN1CCN(C2=Nc3cc(Cl)ccc3Nc3ccccc32)CC1	inactive	–	inconclusive: 23.5 µM [cytotoxic, partial curve, poor fit]	inactive	–	–	inconclusive: 5.9 µM [rising, partial curve]	inactive	–	–	–	inactive: 114%
CCCS(=O)c1ccc2nc(NC(=O)OC)[nH]c2c1 (centres undefined)	inconclusive: 26.4 µM [cytotoxic, single point]	inconclusive: 26.4 µM [cytotoxic, partial curve]	inconclusive: 0.0021 µM [rising, full curve, poor fit]	–	–	inconclusive: 37.2 µM [cytotoxic, single point]	inconclusive: 29.6 µM [cytotoxic, single point]	inconclusive: 1.18 µM [cytotoxic, full curve, poor fit]	–	–	–	–
CC1(C)NC(=O)N(c2ccc([N+](=O)[O-])c(C(F)(F)F)c2)C1=O	inconclusive: 20.9 µM [cytotoxic, single point]	–	inconclusive: 29.6 µM [cytotoxic, single point]	active: 8.33 µM	inconclusive: 1.32 µM [cytotoxic, full curve, poor fit]	inactive	inconclusive: 20.9 µM [cytotoxic, partial curve, poor fit]	inconclusive: 0.0019 µM [cytotoxic, full curve, poor fit]	–	–	–	–
Clc1ccc2nsnc2c1NC1=NCCN1	inactive	–	inconclusive: 0.0037 µM [rising, full curve, poor fit]	inconclusive: 0.0105 µM [rising, full curve, poor fit]	inconclusive: 0.0012 µM [rising, full curve, poor fit]	inconclusive: 33.2 µM [cytotoxic, single point]	inconclusive: 0.935 µM [rising, partial curve, poor fit]	inactive	–	–	–	–
CCc1ccc(C=C2SC(=S)NC2=O)cc1	inconclusive: 26.4 µM [cytotoxic, single point]	–	inconclusive: 16.6 µM [cytotoxic, partial curve]	inactive	inconclusive: 0.469 µM [rising, full curve, poor fit]	inconclusive: 0.0235 µM [rising, full curve]	inconclusive: 0.0372 µM [rising, full curve, poor fit]	inconclusive: 37.2 µM [cytotoxic, partial curve, poor fit]	–	–	–	–
Cc1c(OCC(F)(F)F)ccnc1CS(=O)c1nc2ccccc2[nH]1 (centres undefined)	active: 0.833 µM	inconclusive: 1.48 µM [rising, partial curve, poor fit]	inconclusive: 11.8 µM [cytotoxic, partial curve, poor fit]	inconclusive: 33.2 µM [cytotoxic, single point]	–	inconclusive: 0.0021 µM [rising, full curve, poor fit]	–	–	–	–	inconclusive: 0.0372 µM [rising, full curve, poor fit]	inactive: 128%
CO[C@H]1C[C@@H]2CC[C@@H](C)[C@@](O)(O2)C(=O)C(=O)N2CCCC[C@@H]2C(=O)O[C@H]([C@H](C)C[C@@H]2CC[C@H](OCCO)[C@H](OC)C2)CC(=O)[C@H](C)C=C(C)[C@@H](O)[C@@H](OC)C(=O)[C@H](C)C[C@H](C)C=CC=CC=C1C	inconclusive: 11.8 µM [cytotoxic, partial curve]	inconclusive: 20.9 µM [cytotoxic, partial curve]	inconclusive: 0.187 µM [cytotoxic, full curve]	inconclusive: 26.4 µM [cytotoxic, single point]	–	inconclusive: 3.32 µM [cytotoxic, partial curve, poor fit]	inconclusive: 8.33 µM [cytotoxic, partial curve]	inconclusive: 0.0053 µM [cytotoxic, full curve, poor fit]	–	–	–	–

Exported with bars between the fields: entries from further up.
Structure (SMILES) | Potency [1] | Potency [2] | Potency [3] | Potency [4] | Potency [5] | Potency [6] | Potency [7] | Potency [8] | Potency [9] | viability, % of control [4] | Potency [10] | viability [5]
CCc1ccc(C=C2SC(=S)NC2=O)cc1 | inconclusive: 26.4 µM [cytotoxic, single point] | – | inconclusive: 16.6 µM [cytotoxic, partial curve] | inactive | inconclusive: 0.469 µM [rising, full curve, poor fit] | inconclusive: 0.0235 µM [rising, full curve] | inconclusive: 0.0372 µM [rising, full curve, poor fit] | inconclusive: 37.2 µM [cytotoxic, partial curve, poor fit] | – | – | – | –
Cc1c(OCC(F)(F)F)ccnc1CS(=O)c1nc2ccccc2[nH]1 (centres undefined) | active: 0.833 µM | inconclusive: 1.48 µM [rising, partial curve, poor fit] | inconclusive: 11.8 µM [cytotoxic, partial curve, poor fit] | inconclusive: 33.2 µM [cytotoxic, single point] | – | inconclusive: 0.0021 µM [rising, full curve, poor fit] | – | – | – | – | inconclusive: 0.0372 µM [rising, full curve, poor fit] | inactive: 128%
